These are yes or no findings as the source states them, for the method shown. Binding seen in cells or lysates may run through a third protein. Some binding calls cover weakened binding; strength is not graded here.

Chains of the proteins cited; added tags and fusions are not shown. Lines headed by an entry give the natural chain unless they say otherwise; changes in a name come on top.
UniProt Q5S007: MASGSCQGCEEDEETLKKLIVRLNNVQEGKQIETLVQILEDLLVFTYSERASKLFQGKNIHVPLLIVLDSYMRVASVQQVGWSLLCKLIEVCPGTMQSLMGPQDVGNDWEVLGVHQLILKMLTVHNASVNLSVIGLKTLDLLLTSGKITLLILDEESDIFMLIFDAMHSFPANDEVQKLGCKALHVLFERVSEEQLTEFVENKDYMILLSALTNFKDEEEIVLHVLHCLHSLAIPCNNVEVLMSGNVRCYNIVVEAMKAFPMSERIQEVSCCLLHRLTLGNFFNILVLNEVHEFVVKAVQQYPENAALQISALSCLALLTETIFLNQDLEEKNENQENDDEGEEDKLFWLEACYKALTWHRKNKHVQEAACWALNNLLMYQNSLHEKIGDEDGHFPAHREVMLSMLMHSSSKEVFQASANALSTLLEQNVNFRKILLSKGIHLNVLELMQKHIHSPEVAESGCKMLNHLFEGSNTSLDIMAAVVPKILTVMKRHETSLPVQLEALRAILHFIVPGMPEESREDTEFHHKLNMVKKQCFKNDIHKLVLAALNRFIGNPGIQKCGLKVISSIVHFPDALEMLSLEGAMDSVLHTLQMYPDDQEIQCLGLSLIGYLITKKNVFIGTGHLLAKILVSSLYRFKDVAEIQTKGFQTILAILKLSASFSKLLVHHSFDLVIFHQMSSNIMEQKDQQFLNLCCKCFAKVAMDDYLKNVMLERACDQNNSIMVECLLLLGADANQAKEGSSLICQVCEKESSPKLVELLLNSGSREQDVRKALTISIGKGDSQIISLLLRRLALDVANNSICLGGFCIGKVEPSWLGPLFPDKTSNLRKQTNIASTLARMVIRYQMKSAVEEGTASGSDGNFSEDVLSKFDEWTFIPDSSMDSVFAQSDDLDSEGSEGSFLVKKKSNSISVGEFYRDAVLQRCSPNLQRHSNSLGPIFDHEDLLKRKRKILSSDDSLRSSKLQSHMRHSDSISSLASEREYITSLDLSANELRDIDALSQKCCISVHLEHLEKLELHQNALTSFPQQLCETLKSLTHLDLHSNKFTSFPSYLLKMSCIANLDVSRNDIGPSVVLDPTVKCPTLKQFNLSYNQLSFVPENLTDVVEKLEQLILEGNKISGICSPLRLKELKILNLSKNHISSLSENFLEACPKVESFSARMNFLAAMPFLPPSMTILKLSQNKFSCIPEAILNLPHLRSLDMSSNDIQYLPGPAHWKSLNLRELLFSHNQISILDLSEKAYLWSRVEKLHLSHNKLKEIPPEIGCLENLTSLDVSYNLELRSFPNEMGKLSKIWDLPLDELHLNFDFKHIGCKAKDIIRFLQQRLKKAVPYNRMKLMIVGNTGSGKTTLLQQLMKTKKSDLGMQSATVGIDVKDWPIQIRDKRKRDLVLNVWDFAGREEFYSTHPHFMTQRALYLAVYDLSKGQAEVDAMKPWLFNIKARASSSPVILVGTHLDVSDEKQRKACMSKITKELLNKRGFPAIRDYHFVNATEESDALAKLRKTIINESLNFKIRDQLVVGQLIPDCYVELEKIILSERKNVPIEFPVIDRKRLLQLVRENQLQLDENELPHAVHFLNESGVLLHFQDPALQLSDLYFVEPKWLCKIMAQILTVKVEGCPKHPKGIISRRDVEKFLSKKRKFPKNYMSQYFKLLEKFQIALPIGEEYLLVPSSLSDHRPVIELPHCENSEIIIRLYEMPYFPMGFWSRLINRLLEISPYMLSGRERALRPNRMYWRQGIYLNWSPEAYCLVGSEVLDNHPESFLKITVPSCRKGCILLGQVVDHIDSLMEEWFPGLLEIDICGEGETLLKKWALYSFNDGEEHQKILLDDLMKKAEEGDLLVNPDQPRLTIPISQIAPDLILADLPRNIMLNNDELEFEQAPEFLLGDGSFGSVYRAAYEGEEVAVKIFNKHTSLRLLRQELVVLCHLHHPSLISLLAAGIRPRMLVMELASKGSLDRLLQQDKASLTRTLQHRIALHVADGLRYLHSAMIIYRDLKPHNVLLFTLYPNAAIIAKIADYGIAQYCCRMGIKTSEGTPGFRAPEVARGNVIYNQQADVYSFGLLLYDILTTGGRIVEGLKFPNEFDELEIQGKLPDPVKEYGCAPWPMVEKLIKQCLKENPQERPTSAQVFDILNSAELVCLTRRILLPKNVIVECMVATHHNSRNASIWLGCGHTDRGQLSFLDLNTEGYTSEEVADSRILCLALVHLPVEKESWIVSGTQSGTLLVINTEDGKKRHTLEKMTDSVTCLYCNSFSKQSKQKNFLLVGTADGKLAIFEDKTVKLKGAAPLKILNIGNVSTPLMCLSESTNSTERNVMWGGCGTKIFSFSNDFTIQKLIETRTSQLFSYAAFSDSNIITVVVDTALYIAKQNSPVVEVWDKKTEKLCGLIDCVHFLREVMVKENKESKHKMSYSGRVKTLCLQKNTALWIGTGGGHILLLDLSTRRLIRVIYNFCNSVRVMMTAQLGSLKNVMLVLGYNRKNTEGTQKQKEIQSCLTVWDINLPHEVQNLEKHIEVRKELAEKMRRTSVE
UniProt P31323: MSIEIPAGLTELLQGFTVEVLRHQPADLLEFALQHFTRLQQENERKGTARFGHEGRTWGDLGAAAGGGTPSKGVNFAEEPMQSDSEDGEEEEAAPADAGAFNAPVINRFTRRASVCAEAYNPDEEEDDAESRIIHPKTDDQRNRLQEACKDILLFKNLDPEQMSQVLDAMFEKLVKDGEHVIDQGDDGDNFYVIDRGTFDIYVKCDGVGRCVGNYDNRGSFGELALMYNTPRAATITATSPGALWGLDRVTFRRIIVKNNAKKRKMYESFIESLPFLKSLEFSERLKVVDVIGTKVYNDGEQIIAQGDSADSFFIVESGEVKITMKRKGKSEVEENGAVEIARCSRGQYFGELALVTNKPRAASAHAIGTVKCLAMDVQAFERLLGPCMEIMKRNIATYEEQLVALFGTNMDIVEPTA
UniProt P31324: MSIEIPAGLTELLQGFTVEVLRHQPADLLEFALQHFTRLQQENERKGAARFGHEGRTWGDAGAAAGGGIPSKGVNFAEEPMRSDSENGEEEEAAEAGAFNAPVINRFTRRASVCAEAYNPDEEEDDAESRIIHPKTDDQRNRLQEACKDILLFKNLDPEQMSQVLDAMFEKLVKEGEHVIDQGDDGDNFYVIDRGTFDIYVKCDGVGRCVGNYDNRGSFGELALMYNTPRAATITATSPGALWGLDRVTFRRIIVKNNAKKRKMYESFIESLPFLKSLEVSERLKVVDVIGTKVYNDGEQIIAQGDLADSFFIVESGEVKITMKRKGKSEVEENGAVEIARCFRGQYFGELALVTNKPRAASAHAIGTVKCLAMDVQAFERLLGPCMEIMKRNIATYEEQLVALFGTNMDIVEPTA

The target in assay [1] is 3xFlag-tagged LRRK2 G2019S (UniProt Q5S007). Kind of assay: co-IP; HEK293T co-transfected, harvested 48 h post-transfection; lysis buffer 50 mM Tris pH 7.5, 1% Triton X-100; anti-Flag M2 affinity gel overnight; washes with 0.25 M NaCl; Flag and GFP immunoblotting; cells also treated with GSK2578215A (2 uM, 90 min), forskolin (30 uM, 90 min) or DMSO. On the technique in general: In western blotting, separated proteins are transferred to a membrane and probed.

Assay [2] addresses 3xFlag-tagged LRRK2 WT (leucine-rich repeat kinase 2) (UniProt Q5S007). The assay is described as above.
The next assay has as its target GFP-tagged LRRK2 WT (UniProt Q5S007). Kind of assay: pull-down; GFP-tagged protein purified on GFP-trap resin, incubated 2 h with BV2 lysates containing endogenous prey; washes with 0.25 M NaCl; GFP and PKA RIIβ immunoblotting; BV2 cells also treated beforehand with GSK2578215A or DMSO; only the target purified.

As to “GFP-tagged PKA RIIβ (protein kinase A regulatory IIβ subunit) (from UniProt P31323 1-418)”, the binding entry in assay [1] and in assay [2] was “binds” in each case.
“endogenous PKA RIIβ subunit of BV2 microglia cells (from UniProt P31324 1-416)”: the binding result in the assay with GFP-tagged LRRK2 WT is on record as “binds”.

The record behind these values is article PMC6204045.
